From PubChem BioAssay AID2685 (National Center for Advancing Translational Sciences (NCATS), 2010)
This is one part of the list. Shown are side measurements of this screen, not its main read-out; they come without a call. The list favours compounds with an active or inconclusive main result. Potencies come from curve fits of mixed quality, noted in brackets.

Test: qHTS Assay for Lipid Storage Modulators in Drosophila S3 Cells;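 for cell number change: cells counted by Cell Tracker Red CMTPX staining in the red channel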
Settings: BODIPY lipid droplet fluorescence, 18-24 h; for cell number change: measured here: cell count max response, cells fed with added oleic acid
Procedure, shortened: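 Laser-scanning cytometry quantifies lipid droplet accumulation (500–530 nm total intensity; droplet/cell object ratio) in oleic acid-fed (400 uM added) Drosophila S3 cells treated with a concentration series. 20 uM Triacsin C defined 100% inhibition.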

[1] = measured here: cell number channel AC50, cells fed with added oleic acid
[2] = measured here: lipid fluorescence (Fed channel) AC50, cells fed with added oleic acid

Row | SMILES | cell number change [%] | AC50 [1] | AC50 [2]
1 | O=C(Nc1ccnn1C1CCN(Cc2ccccc2OCCO)CC1)c1cccc(F)c1 | 31.4 | 32.6 µM [rising, single point] | 13 µM [rising, partial curve]
2 | Nn1c(SCC(=O)N2CCOCC2)nnc1-c1ccc(Cl)cc1Cl | – | – | 0.58 µM [rising, single point]
3 | CCS(=O)(=O)n1nc(C(=O)N2CCOCC2)nc1N | -199 | 18.4 µM [falling, partial curve] | 18.4 µM [falling, partial curve]
4 | CCCc1cc(=O)[nH]c(SCC(=O)Nc2nc3ccc(OCC)cc3s2)n1 | -7.88 | – | 0.00517 µM [falling, full curve, poor fit]
5 | O=C(Nc1ccnn1C1CCN(Cc2ccccc2OC(F)F)CC1)c1cccnc1 | 23.3 | – | 9.2 µM [rising, partial curve, poor fit]
6 | CSc1nc(NCCCN(C)C)c2c3c(sc2n1)CN(C)CC3 | 33.8 | 11.6 µM [rising, partial curve] | 6.51 µM [rising, single point]
7 | COc1cccc(C(=O)Nc2ccc(-c3nnc(-c4ccco4)o3)cc2)c1 | 13.5 | – | 23.1 µM [falling, single point]
8 | CN(Cc1cccs1)C(=O)COc1ccc(-c2nnco2)cc1 | 29 | 0.164 µM [rising, full curve, poor fit] | –
9 | CC(C)c1ccc(NC(=S)NCCc2c[nH]c3ccccc23)cc1 | -16.3 | – | –
10 | CCN(CC)S(=O)(=O)c1cccc(C(=O)N/N=C/c2c(C)nn(-c3ccccc3)c2Cl)c1 | 8.88 | – | 0.231 µM [falling, partial curve, poor fit]
11 | CC(=O)C(Sc1nc(NC(C)(C)C)nc(N(C)C)n1)C(C)=O | -33 | 16.4 µM [falling, partial curve] | 23.1 µM [falling, single point]
12 | O=C(CSc1nnc(CSc2nc3ccccc3s2)o1)NC1CCCCC1 | -11.9 | – | 0.461 µM [rising, full curve, poor fit]
13 | COc1cc(C(=O)NCC(c2ccccc2)N(C)C)ccc1OCc1c(C)noc1C (stereo not drawn) | 9.39 | – | –
14 | COc1cc(OC)cc(C(=O)N2CCN(c3ncccn3)CC2)c1 | 56 | 29.1 µM [rising, single point] | 29.1 µM [rising, single point]
15 | O=C(O)c1ccc(/C=N/NC(=O)C2CC2(c2ccccc2)c2ccccc2)cc1 (stereo not drawn) | 75 | – | –
16 | CCOC(=O)N1CCN(C(=O)CCC2CCCC2)CC1 | -2.05 | – | 1.16 µM [rising, single point]
17 | COc1ccccc1-n1nnnc1SCC(=O)NCC1CCCO1 (stereo not drawn) | 18.1 | – | –
18 | COc1ccc(C2(c3ccc(OC)cc3)NC(=O)N(CC(=O)Nc3ccc(C(N)=O)cc3)C2=O)cc1 | 5.65 | – | –
19 | CC(C)c1ccccc1OCC(=O)NCC(c1cccs1)N1CCOCC1 (stereo not drawn) | -33.5 | 0.461 µM [falling, full curve, poor fit] | 0.82 µM [falling, full curve, poor fit]
20 | CN(Cc1cccc(F)c1)C(=O)CNS(=O)(=O)c1ccc2ccccc2c1 | 20.2 | – | 0.206 µM [rising, single point]
21 | Cc1nn(CC(=O)Nc2sc3c(c2C#N)CCC(C(C)(C)C)C3)c(C)c1[N+](=O)[O-] (stereo not drawn) | -5.95 | – | 3.66 µM [falling, full curve]

Row | SMILES | cell number change [%] | AC50 [1] | AC50 [2]
22 | C=CCN(c1ccccc1)S(=O)(=O)c1cccc(C(=O)NCC(c2ccc(F)cc2)N2CCOCC2)c1 (stereo not drawn) | – | 4.61 µM [rising, single point] | 0.651 µM [rising, partial curve]
23 | COc1ccccc1N(CC(=O)NC1CCCCC1)C(=O)Cn1nnc(-c2ccc(C)o2)n1 | 21.4 | – | –
24 | CCn1cc([N+](=O)[O-])c(C(=O)N2N=C(c3ccc4ccccc4c3)CC2c2cc(Br)ccc2O)n1 (stereo not drawn) | -51.2 | 20.6 µM [falling, single point] | 20.6 µM [falling, single point]
25 | CN(C)c1nc(Cl)cc(N2CCOCC2)n1 | – | – | 1.3 µM [falling, partial curve, poor fit]
26 | CCOCCCNC(=O)c1cc2c(=O)[nH]c3ccccc3c2s1 | 8.5 | – | –
27 | CSc1ccc(/C=N/N(C)S(=O)(=O)c2ccc(C)cc2)cc1 | -15.7 | – | 29.1 µM [falling, single point]
28 | O=C(c1ccccc1)N1N=C(c2ccccc2)CC1(O)C(F)(F)F (stereo not drawn) | -32.5 | 32.6 µM [falling, single point] | –
29 | Cc1cc2n(n1)C(c1ccsc1)Nc1ccccc1-2 (stereo not drawn) | 20.9 | – | 13 µM [rising, partial curve]
30 | COc1ccc(OC)c(S(=O)(=O)ON2C(=O)c3ccccc3C2=O)c1 | 5.26 | – | 0.0517 µM [falling, full curve, poor fit]
31 | CC1CC(C)(C)NC(=S)N1CCC(=O)Nc1ccc2c(c1)OCCO2 (stereo not drawn) | – | – | 7.31 µM [falling, single point]
32 | O=C(c1ccccc1)N1N=C(c2ccccc2)CC1c1cccs1 (stereo not drawn) | – | 0.00461 µM [rising, full curve, poor fit] | –
33 | O=C(OCc1ccccc1F)c1cnc(Cl)c(Cl)c1 | 20.9 | – | –
34 | Cc1ccc2nc(-c3ccncc3)cc(C(=O)N3CCOCC3)c2c1 | -8.09 | – | 0.164 µM [falling, full curve, poor fit]
35 | CC(C)(C)c1ccc(-n2ncc3c2CCCC3NC(=O)CN2CCCCC2=O)cc1 (stereo not drawn) | -19.1 | – | 29.1 µM [falling, single point]
36 | C/C(CC(=O)NC12CC3CC(CC(C3)C1)C2)=N\NC(=O)c1ccc(C)cc1 | 5.25 | – | 0.092 µM [rising, full curve, poor fit]
37 | CCC(C)NCCOc1cc(C)cc(C)c1C (stereo not drawn) | – | – | 0.00461 µM [falling, full curve, poor fit]
38 | CCCCN(C1CCS(=O)(=O)C1)S(=O)(=O)c1ccc(OC)c(OC)c1 (stereo not drawn) | -33.3 | 20.6 µM [falling, single point] | 20.6 µM [falling, single point]
39 | Cc1ccc(Cn2cccc(NS(C)(=O)=O)c2=O)cc1 | 14.4 | – | –
40 | Cc1ccc(NC(=O)Nc2ccc3oc(C)nc3c2)cc1 | – | 0.731 µM [rising, partial curve, poor fit] | –
41 | O=C(COC(=O)c1ccccn1)NCCCc1ccccc1 | -18.2 | – | 3.26 µM [falling, partial curve, poor fit]
42 | COCCCNc1nc2c(-c3ccc(Cl)cc3)nnn2c2ccccc12 | 14.8 | – | 0.58 µM [rising, full curve]

Arranged by length of the SMILES (high to low): part of the list above
Row | SMILES | cell number change [%] | AC50 [1] | AC50 [2]
23 | COc1ccccc1N(CC(=O)NC1CCCCC1)C(=O)Cn1nnc(-c2ccc(C)o2)n1 | 21.4 | – | –
34 | Cc1ccc2nc(-c3ccncc3)cc(C(=O)N3CCOCC3)c2c1 | -8.09 | – | 0.164 µM [falling, full curve, poor fit]
42 | COCCCNc1nc2c(-c3ccc(Cl)cc3)nnn2c2ccccc12 | 14.8 | – | 0.58 µM [rising, full curve]
32 | O=C(c1ccccc1)N1N=C(c2ccccc2)CC1c1cccs1 (stereo not drawn) | – | 0.00461 µM [rising, full curve, poor fit] | –
33 | O=C(OCc1ccccc1F)c1cnc(Cl)c(Cl)c1 | 20.9 | – | –

(listing goes on)

Row | SMILES | cell number change [%] | AC50 [1] | AC50 [2]
43 | CCOC(=O)c1ccc(-c2c(-c3ccc4c(c3)OCO4)noc2-c2ccsc2)cc1F | -5.39 | – | –
44 | COc1ccc(-c2nnn(Cc3ccccc3)n2)cc1OC | 3.28 | – | –
45 | CNC(=O)c1ccc(-c2ccc(OC)cc2)s1 | -10.1 | – | –
46 | O=C(/C=C/c1ccc(Cl)c([N+](=O)[O-])c1)Nc1ccc(NC(=O)c2ccco2)cc1 | -15.3 | – | –
47 | CN(C)/C=N/C(=S)Nc1ccc(Cl)cc1 | -29.2 | – | 29.1 µM [falling, single point]
48 | CN(Cc1ccccc1F)C(=O)CNC(=O)Cc1cccc2ccccc12 | 14.1 | – | 6.51 µM [rising, partial curve, poor fit]
49 | CCCCOc1nc2ccccc2nc1NS(=O)(=O)c1ccc(F)cc1 | 2.13 | – | –
50 | Cc1ccc(NC(=O)COC(=O)COc2ccc3ccc(=O)oc3c2)cc1[N+](=O)[O-] | -3.58 | – | 16.4 µM [rising, single point]
51 | COc1ccc(NC(C)C(=O)N/N=C/c2ccc([N+](=O)[O-])s2)cc1 (stereo not drawn) | -11.1 | – | –
52 | CC(=O)Nc1ccc(S(=O)(=O)Nc2cccc(N(C)S(C)(=O)=O)c2)cc1 | -31.2 | 7.31 µM [falling, partial curve] | 11.6 µM [falling, partial curve]
53 | COc1ccc(OCC(=O)NCCS(=O)(=O)N2CCN(c3ccc(F)cc3)CC2)cc1 | 24.5 | 0.651 µM [rising, full curve, poor fit] | 29.1 µM [rising, single point]
54 | O=C(COc1ccc(F)c(Cl)c1)c1ccc[nH]1 | -29.3 | – | 20.6 µM [rising, partial curve]
55 | CCCn1nc(NC(=O)COC)c2cc3cc(C)ccc3nc21 | – | – | 6.51 µM [rising, single point]
56 | COc1ccc(S(=O)(=O)N2CCCC(C(=O)NCCC(C)C)C2)cc1 (stereo not drawn) | – | – | 0.651 µM [rising, single point]
57 | Cn1cc(C(=O)N2CCN(c3cccc(Cl)c3)CC2)c(=O)c2cc(S(=O)(=O)N3CCOCC3)ccc21 | -17.4 | – | 3.26 µM [falling, single point]
58 | Cc1cc(C)c(C#N)c(SCC(=O)N(C)C2CCCCC2)n1 | 9.55 | 5.8 µM [rising, partial curve, poor fit] | –
59 | O=C(O)c1ccccc1NC(=O)C(Cc1ccccc1)N1C(=O)c2ccccc2C1=O (stereo not drawn) | -6.31 | – | –
60 | c1ccc(C2Nc3ccccc3C3OCCCC23)cc1 (stereo not drawn) | 15.3 | – | 29.1 µM [rising, single point]
61 | Cn1c2ccccc2c2cc(C(=O)O)ccc21 | 2.05 | – | 29.1 µM [rising, single point]
62 | CCOC(=O)c1c(C)oc2c1c(C(c1ccccc1)N1CCOCC1)c(O)c1ccccc12 (stereo not drawn) | 54.3 | 3.66 µM [rising, partial curve] | –
63 | CCCCn1c(N)c(N(CCC(C)C)C(=O)c2cccc(S(=O)(=O)N3CCN(C)CC3)c2)c(=O)[nH]c1=O | -35.6 | 2.91 µM [falling, full curve] | 3.66 µM [falling, full curve]
